Results from patent EP4549150A1, “RESIN COMPOSITION FOR THREE-DIMENSIONAL PRINTING” (Cubicure GmbH, priority 2023, dated 2025).
Some results were stated once for a whole list of compounds, not compound by compound.

Experiment: Volatility: weight loss after 24 hours in oven
Assay type: physicochemical
Conditions: 50°C, listed as example 4
Experimental: Volatility can be assessed from the weight lost after 24 hours, and is preferably below 10%, more preferably below 5% and even more preferable below 1% at the process temperature (between 30 and 150°C). For the determination of the volatility of the compounds 25 mL flasks (Ø 30 mm) with approximately 2 grams of the test compound were placed in a Memmert oven at 50 °C and 80°C for 24 hours and the volatility was determined as the weight loss in percent (w/w).

C=C(C)C(=O)OC1CCCCC1OC(=O)Cc1ccccc1 (stereo not shown) [Ex4, 2-(benzylcarbonyloxy)cyclohexyl methacrylate]
Volatility [weight loss %]: ≤ 5%
